These results are taken from patent publication US20240131158A1 (Takeda / Millennium, published 2024).

Protein sequences, listed by entry. Tags and fused reporters are not part of them. Residues count along the entry.
UniProt P37173, residues 23-159: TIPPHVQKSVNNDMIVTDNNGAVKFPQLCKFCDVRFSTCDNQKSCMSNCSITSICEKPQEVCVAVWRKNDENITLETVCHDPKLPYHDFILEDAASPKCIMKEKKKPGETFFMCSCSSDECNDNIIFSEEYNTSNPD

These are yes or no findings as the source states them, for the method shown. Some results given as binding are weak or reduced against the parent protein; the word gives no strength.

Test [1] concerns the target T1, hTGFβR2-Fc (human, UniProt P37173 23-159).
T1 construct: Bought (RnD Systems); also called TGFbR2-Fc; human recombinant TGFbR2-Fc protein; not shown: Fc part of the bought fusion protein
Kind of test: ELISA (figure legend). How it is done:
(§1) Supernatant from TGF-β modulating CAR-T cells were assayed by ELISA to detect anti-TGF-β and anti-TGFβR2 antibodies. Maxisorp 96 well plates were coated with recombinant human TGF-β […] or hTGFβR2-Fc (0.1 mg/ml; RnD System) in 100 μl coating buffer overnight at 4° C. Plates were washed with 1× wash buffer and blocked for 1 hour with reagent diluent at room temperature. CAR-T supernatant, recombinant TGFβR2-flag, or recombinant TGF-3-flag antibody was added and incubated for 2 hours at room temperature.
(§2) After another washing step, HRP-conjugated flag-tag antibody was added and incubated for 30 minutes at room temperature. Plates were washed and TMB substrate was added for 10-20 minutes. The reaction was stopped using Stop reagent and plates were read at 450 nm using a Pherastar Plate reader. ELISA using coated TGF-b detected high levels of TGF-b scFv VH-VL1 and TGF-b scFv VH-VL2 as compared to TGF-b scFv VL-VH using anti-flag tag HRP antibodies for binder detection (FIG. 3A). ELISA using coated TGFbR2-Fc detected high levels of TGFbR2 scFv VH-VL, TGFbR2 scFv VL-VH and hTGFbR2 VH1 from human CAR-T but was unable to detect mTGFbR2 VH1 (FIG. 3B). […]
(§3) Supernatant was harvested two days after transduction and frozen at −80′C until used for ELISA. […] Binding was detected using anti-flag HRP antibodies and the respective substrate. […]
A general note: ELISA stands for enzyme-linked immunosorbent assay.

For test [2], the target named is T1, hTGFβR2-Fc. Description: ELISA, human recombinant TGFbR2-Fc as capture, mouse CAR-T supernatant, anti-flag HRP detection. How it is done: as §1, §2, §3

B1: hTGFbR2 VH3 G4S dimer (VHH)
chain: EVQLLESGGGLVQPGGSLRLSCAASGFTFGTDQMWWVRQAPGKGLEFVSRIDSPGGRTYYANSVKGRFTISRDNSKNTLYLQMNSLRAEDTAVYYCAKRQPAGVSGKYVDYWGQGTLVTVSSGGGGSEVQLLESGGGLVQPGGSLRLSCAASGFTFGTDQMWWVRQAPGKGLEFVSRIDSPGGRTYYANSVKGRFTISRDNSKNTLYLQMNSLRAEDTAVYYCAKRQPAGVSGKYVDYWGQGTLVTVSS
notes: It is built here from its name (VH3 - G4S - VH3); Flag-tagged; also called hTGFbR2-VH3 dimer
As to B1, the binding entry with hTGFβR2-Fc [1] and with hTGFβR2-Fc [2] was “binds” throughout.

B2: hTGFbR2 VH2 G4S dimer (VHH)
chain: EVQLLESGGGLVQPGGSLRLSCAASGSTFTEYRMWWVRQAPGKGLEWVSAIEPIGHRTYYANSVRGRFTISRDNSKNTLYLQMNSLRAEDTAVYYCAKQAPGEKWARRWDLDYWGQGTLVTVSSGGGGSEVQLLESGGGLVQPGGSLRLSCAASGSTFTEYRMWWVRQAPGKGLEWVSAIEPIGHRTYYANSVRGRFTISRDNSKNTLYLQMNSLRAEDTAVYYCAKQAPGEKWARRWDLDYWGQGTLVTVSS
notes: Flag-tagged; also called hTGFbR2-VH2 dimer
For B2, the binding entry with hTGFβR2-Fc [1] and with hTGFβR2-Fc [2] was “binds” each time.
